In one experiment the test system is MCL-1. Put plainly: MCL-1 protein expression by western blot in H1975 cells. The experiment is classed as cell-based, human. Here is the method:
(§1) The abilities of compounds of the invention to inhibit BMI-1/MCl-1 expressions were assayed with cell cultures. BMI-1 and MCL-1 are overexpressed in many cancers, such as lung cancer cell line H1975. Therefore, cancer cells that overexpress BMI-1/MCL-1 provide a convenient platform for assaying BMI-1/MCL-1 inhibition.
(§2) After drug treatments, cells were washed twice with PBS, scraped, and resuspended in RIPA buffer containing protease inhibitors (20 mM Tris-HCl pH 7.5, 150 mM NaCl, 1 mM Na2EDTA, 1 mM EGTA, 1% NP-40, 1% sodium deoxycholate, 2.5 mM sodium pyrophosphate, 1 mM b-glycerophosphate, 1 mM Na3VO4, 1 μg/ml leupeptin). Cell lysate was sonicated for 5-10 min, and centrifuged at 14000 rpm for 20 minutes at 4° C. The supernatant was collected, determined for protein concentrations, and stored at −80° C. before further use.
(§3) BMI-1/MCL-1 expression levels may be assessed with western blot analysis. […] The denatured protein samples were then loaded in 10% Tris-Glycine SDS polyacrylamide gel for separating proteins. The power supply for the running condition was set at 80 V for running stacking gel and 100 V for separating gel, respectively. […] The power supply for the transfer condition was set at 300 mA, and the transfer was carried out on ice for 2.5 hours. […]
A general note: A western blot detects proteins with antibodies after separation by electrophoresis.

Another experiment deals with H1975 cells. To be noted: serum-free matrigel, different concentrations.
Another experiment relates to BMI-1. Put plainly: BMI-1 protein expression by western blot in H1975 cells. The experiment is classed as cell-based, human. As for the experimental part:
as §1, §2, §3

As to `CCN(CC)C(=O)N[C@@H]1C=C2c3cccc4[nH]cc(c34)C[C@H]2N(C)C1` [lisuride, reference compound], the “inhibition of MCL-1 expression, dose dependence” value with MCL-1 is “inhibition of BMI-1 and MCL-1 expressions”. Besides, the “inhibition of H1975 cell spheroid formation” value in the experiment on H1975 cells is given as “dose-dependent manner”. Further, the “inhibition of BMI-1 expression, dose dependence” value in the experiment on BMI-1 was “inhibited BMI-1 expression”.

For the origin of these results see patent US20200062738A1, “ANTI-CANCER STEMNESS DRUGS” (Development Center for Biotechnology, priority 2017, published 2020).
